We go through three sequences from PMC11671767, “GENOMES UNCOUPLED PROTEIN1 binds to plastid RNAs and promotes their maturation”.

For part of these data: Negatives hold for the conditions tested. Protein sequences can lack the tags named with them. For at least one entry, the source does not settle the construct or the ends of the probe. For part of these data: The comparison behind a weaker result is the experiment's own reference, which may not be listed here.

Series [1] addresses T1, GUN1-PS (Arabidopsis thaliana) (UniProt Q9SIC9).
T1 sequence (looked up): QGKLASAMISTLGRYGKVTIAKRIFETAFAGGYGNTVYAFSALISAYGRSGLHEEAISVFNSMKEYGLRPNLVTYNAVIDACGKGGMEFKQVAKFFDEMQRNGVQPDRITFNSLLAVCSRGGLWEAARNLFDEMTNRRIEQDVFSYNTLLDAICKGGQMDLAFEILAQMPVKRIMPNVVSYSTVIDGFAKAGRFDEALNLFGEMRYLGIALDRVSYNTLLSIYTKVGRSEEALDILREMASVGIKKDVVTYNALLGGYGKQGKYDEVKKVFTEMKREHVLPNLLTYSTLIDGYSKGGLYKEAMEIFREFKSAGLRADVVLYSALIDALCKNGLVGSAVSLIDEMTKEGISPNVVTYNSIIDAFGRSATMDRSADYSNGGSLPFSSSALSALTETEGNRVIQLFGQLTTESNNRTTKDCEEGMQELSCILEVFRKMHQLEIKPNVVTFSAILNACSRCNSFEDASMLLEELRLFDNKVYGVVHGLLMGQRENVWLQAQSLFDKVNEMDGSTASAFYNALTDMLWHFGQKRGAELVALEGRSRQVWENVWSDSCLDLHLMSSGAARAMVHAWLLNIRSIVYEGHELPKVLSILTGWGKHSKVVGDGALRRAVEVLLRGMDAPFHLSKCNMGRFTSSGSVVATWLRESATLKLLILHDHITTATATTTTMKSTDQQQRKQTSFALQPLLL
Kind of series: EMSA. The conditions noted are these: slight shift, 100-600 nM, weaker shift at 800 nM; 5x buffer (4 ul per reaction): 50 mM Tris-HCl pH 7.5, 50 mM NaCl, 200 mM KCl, 5 mM MgCl2, 5 mM EDTA, 5 mM DTT, 0.25 mg/ml BSA, 5% glycerol; 30 min at 23 C; recombinant protein; residues 232-918; protein details: N-terminal TRX-His.

The target in series [2] is T1, GUN1-PS (Arabidopsis thaliana). Kind of series: competition with a labelled probe. The note with it: 5x buffer (4 ul per reaction): 50 mM Tris-HCl pH 7.5, 50 mM NaCl, 200 mM KCl, 5 mM MgCl2, 5 mM EDTA, 5 mM DTT, 0.25 mg/ml BSA, 5% glycerol, 30 min at 23 C, recombinant protein, residues 232-918, protein details: N-terminal TRX-His.

On to AAGAGACAACCUGGCGAACUGAAAC [23S_104856], for which, in series [1], the binding result is “binds more weakly”.

As for “AAGAGACAACCUGGCGAACUGAAAC [23S_104856 unlabeled]”, the binding result in series [2] (vs Cy5-23S_104856, 5-50x, judged weak or nonspecific) is recorded as “binds”.

Regarding “AUUCUUAUGUGGCAGUCUCUAGUCCACUAGCUUUUG [nonspecific competitor for 23S and ndhG]”, the binding result in series [2] (vs Cy5-ndhG, 5-50x) is on record as “no binding”.
